Laboratory results taken from article PMC7948404.
Results are given in words; binding and its absence hold for the method and conditions named. In cells and extracts the contact can be indirect. Some entries that bind do so weakly or less than the wild type.

Amino acid sequences for entries named in this document (tags omitted).
UniProt Q9NS75: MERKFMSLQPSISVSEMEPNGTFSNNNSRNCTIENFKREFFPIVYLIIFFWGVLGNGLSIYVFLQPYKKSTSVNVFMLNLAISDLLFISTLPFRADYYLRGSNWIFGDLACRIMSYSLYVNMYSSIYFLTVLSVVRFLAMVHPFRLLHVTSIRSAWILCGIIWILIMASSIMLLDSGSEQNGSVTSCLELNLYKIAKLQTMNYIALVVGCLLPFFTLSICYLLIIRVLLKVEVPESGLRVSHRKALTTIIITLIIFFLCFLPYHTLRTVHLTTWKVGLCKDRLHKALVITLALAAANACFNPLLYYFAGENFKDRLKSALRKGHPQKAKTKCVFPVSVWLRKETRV
UniProt P49407: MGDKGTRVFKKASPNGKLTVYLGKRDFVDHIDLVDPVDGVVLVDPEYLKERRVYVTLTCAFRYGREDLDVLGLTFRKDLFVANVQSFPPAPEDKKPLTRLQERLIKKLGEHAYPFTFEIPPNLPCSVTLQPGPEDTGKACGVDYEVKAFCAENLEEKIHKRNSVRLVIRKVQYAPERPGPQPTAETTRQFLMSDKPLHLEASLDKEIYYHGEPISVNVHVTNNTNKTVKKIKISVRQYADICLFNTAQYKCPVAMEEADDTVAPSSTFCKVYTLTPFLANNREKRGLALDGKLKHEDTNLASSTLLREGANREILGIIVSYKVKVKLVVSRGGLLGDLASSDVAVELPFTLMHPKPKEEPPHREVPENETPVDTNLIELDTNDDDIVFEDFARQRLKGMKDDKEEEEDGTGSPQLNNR

Legend:
[1] = biological target: CysLTR2-GFP10 WT (human) (UniProt Q9NS75); test: FRET or BRET; BRET^2 time course in live HEK293T cells: 5 ng β-arrestin-RLuc3 and 80 ng receptor-GFP10 WT DNA per well; 0, 30 or 1000 nM LTD4, a reading every 60 s for about 24 min
[2] = biological target: CysLTR2-GFP10 WT (human) (UniProt Q9NS75); test: FRET or BRET; BRET^2 agonist dose-response in live HEK293T cells: 5 ng β-arrestin-RLuc3 (donor) and 80 ng receptor-GFP10 (acceptor) DNA per well, 24 h after transfection; LTD4 10 pM to 1 μM, 10 min at RT; BRET buffer (DMEM FluoroBrite, 15 mM HEPES, 0.1% BSA, 4 mM glutamine); net BRET^2 = ratio minus β-arrestin-RLuc3-only ratio

binding [1] | binding [2] | Substance
binds | – | β-arrestin2-RLuc3 (from UniProt P32121 1-409)
binds | binds | β-arrestin1–RLuc3 (from UniProt P49407 1-418)
